Results deposited as PubChem BioAssay AID1508588 (Peter MacCallum Cancer Centre, 2020)
The whole screen tested about 18,000 reagents; this is a part drawn at random. 790 of them (4.4%) were called active. 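Calls rest on a combination of fold-change classes in drug and vehicle arms, not all shown here.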 Reagent sequences are not shown.

- Screen: 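Genome-wide search for knock-downs that heighten vemurafenib action in melanoma cells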 (primary screen)
- Cells: human WM266.4 melanoma cells (BRAF V600 mutant)
- Reagents: siRNA pool against human genes, 40 nM
- Duration: 96 h from transfection to read-out
- Treatment: vemurafenib 300 nM (about IC25), added 48 h after transfection, for 48 h; comparison arm got DMSO vehicle only
- Read-out: 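Cell gain (DAPI nuclei at end minus before drug, mean of two replicates) and medium lactate by absorbance per cell, both as ratio to non-targeting siRNA, also grouped into fold-change classes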
- Direction: cell gain with vemurafenib: higher = more cell gain than with non-targeting siRNA; lactate per cell with vemurafenib: higher = more lactate made per cell
- Call rule: 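a knock-down counts as enhancing when its fold-change classes with vehicle and with vemurafenib, taken together, show a stronger drug effect on cell gain or lactate per cell; exact class pairs not stated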
- Meaning of the calls: active = enhances vemurafenib effect; inactive = no enhancement seen

target gene	cell gain with vemurafenib	lactate per cell with vemurafenib	call
NKAPD1	0.94	0.86	inactive
PNOC	0.69	1.03	inactive
WFDC12	0.45	1.1	inactive
LRRC71	0.15	2.02	inactive
CEP19	0.61	1.05	inactive
BRF1	0.55	1.14	inactive
FSCB	0.19	1.43	inactive
MFSD2A	0.89	0.49	active
PRSS54	0.67	0.84	inactive
BATF	0.23	2.25	inactive
SPEN	0.51	0.82	inactive
TIMM9	0.46	0.78	inactive
NAIF1	0.18	0.98	inactive
RHBDL1	0.74	0.96	inactive
MC1R	1	0.83	inactive
MMAA	0.54	1.04	inactive
SNRPG	0.03	0.73	inactive
ASB16-AS1	0.8	1.48	inactive
CYP20A1	0.4	1.16	inactive
ABI1	0.88	0.72	inactive
SELENOS	0.66	0.89	inactive
GNB1	0.48	0.31	inactive
CFAP251	0.68	1.04	inactive
NPAS2	0.67	0.48	inactive
SLC2A14	0.74	0.92	inactive
RPL13	-0.1	2.12	inactive
HLA-DMB	0.49	1.36	inactive
MDM4	0.66	0.42	inactive
AURKAIP1	0.74	1.56	inactive
CDS2	0.47	0.86	inactive
XRCC6	0.41	1.16	inactive
MTIF2	0.92	1.38	inactive
IQCF3	0.6	1.05	inactive
CFAP410	-0.01	1.86	inactive
